Assay results taken from PubChem BioAssay AID248 (DTP/NCI, 2004).
The list is a part of this screen's results and no random one: its compounds were picked by chemical class. Other doses and runs of a compound may be missing. T/C: endpoint of the treated group in % of that of the vehicle group. Some doses have a count of surviving animals in place of a T/C: the source holds a T/C of zero for them, seemingly a mark for toxic or unscored doses. Some survivor counts are full or nearly so, which does not show that the dose was tolerated: the source hardly ever lists a survival T/C far under the control, and the zero likely stands for such cases as well. Counts of survivors are from the toxicity check (mostly the fifth day) where no day follows; animals may have died later. Schedule codes are those of the source, taken here to give the interval after Q, in days (D) or hours (H), and the number of doses after X. Some doses were run more than once; the values are given in rising order. For survival time, the PubChem record calls one and a half times the control and up active, and a quarter to a half above the control has no call in these data; cut-offs in other NCI protocols can differ. Some T/C values carry the count of animals alive at the toxicity check (mostly the fifth day); without a count or a note in brackets, all were alive then. Some T/C values are marked as having no survivor count here; that says nothing about deaths at the dose. Some metal complexes and salts are drawn in pieces, as in the source, so charges may not balance.

System: L1210 leukemia ip in BDF1 mice, survival T/C
Assay: NCI In Vivo Anticancer Drug Screen. Data for tumor model L1210 Leukemia (intraperitoneal) in B6D2F1 (BDF1) mice
Settings: higher T/C = longer survival
[1] = T/C endpoint: mean survival time, dose: 25.0 mg/kg/injection, schedule: Q04DX002 (ip), vehicle: saline with Tween-80
[2] = T/C endpoint: mean survival time, dose: 50.0 mg/kg/injection, schedule: Q04DX002 (ip), vehicle: saline with Tween-80
[3] = T/C endpoint: mean survival time, dose: 25.0 mg/kg/injection, schedule: Q04DX003 (ip), vehicle: saline
[4] = T/C endpoint: mean survival time, dose: 50.0 mg/kg/injection, schedule: Q04DX003 (ip), vehicle: saline
[5] = T/C endpoint: mean survival time, dose: 100.0 mg/kg/injection, schedule: Q04DX003 (ip), vehicle: saline
[6] = T/C endpoint: mean survival time, dose: 200.0 mg/kg/injection, schedule: Q04DX003 (ip), vehicle: saline
[7] = T/C endpoint: mean survival time, dose: 400.0 mg/kg/injection, schedule: Q04DX003 (ip), vehicle: saline
[8] = T/C endpoint: mean survival time, dose: 100.0 mg/kg/injection, schedule: Q01DX009 (ip), vehicle: saline
[9] = T/C endpoint: mean survival time, dose: 200.0 mg/kg/injection, schedule: Q01DX009 (ip), vehicle: saline
[10] = T/C endpoint: mean survival time, dose: 400.0 mg/kg/injection, schedule: Q01DX009 (ip), vehicle: saline
[11] = T/C endpoint: mean survival time, dose: 50.0 mg/kg/injection, schedule: Q01DX001 (ip), vehicle: carboxymethylcellulose (CMC)
[12] = T/C endpoint: mean survival time, dose: 100.0 mg/kg/injection, schedule: Q01DX001 (ip), vehicle: carboxymethylcellulose (CMC)
[13] = T/C endpoint: mean survival time, dose: 200.0 mg/kg/injection, schedule: Q01DX001 (ip), vehicle: carboxymethylcellulose (CMC)
[14] = T/C endpoint: mean survival time, dose: 400.0 mg/kg/injection, schedule: Q01DX001 (ip), vehicle: carboxymethylcellulose (CMC)
[15] = T/C endpoint: mean survival time, dose: 50.0 mg/kg/injection, schedule: Q01DX009 (ip), vehicle: Klucel (hydroxypropylcellulose) (HPC)
[16] = T/C endpoint: mean survival time, dose: 100.0 mg/kg/injection, schedule: Q01DX009 (ip), vehicle: Klucel (hydroxypropylcellulose) (HPC)
[17] = T/C endpoint: mean survival time, dose: 200.0 mg/kg/injection, schedule: Q01DX009 (ip), vehicle: Klucel (hydroxypropylcellulose) (HPC)
[18] = T/C endpoint: mean survival time, dose: 100.0 mg/kg/injection, schedule: Q01DX001 (ip), vehicle: saline
[19] = T/C endpoint: mean survival time, dose: 200.0 mg/kg/injection, schedule: Q01DX001 (ip), vehicle: saline
[20] = T/C endpoint: mean survival time, dose: 400.0 mg/kg/injection, schedule: Q01DX001 (ip), vehicle: saline

C[CH2][Sn]([C]#N)([CH2]C)[CH2]C
T/C (T/C endpoint: mean survival time, dose: 3.12 mg/kg/injection, schedule: Q04DX002 (ip), vehicle: saline with Tween-80): 96 % of control | T/C (T/C endpoint: mean survival time, dose: 6.25 mg/kg/injection, schedule: Q04DX002 (ip), vehicle: saline with Tween-80): 101 % of control | T/C (T/C endpoint: mean survival time, dose: 12.5 mg/kg/injection, schedule: Q04DX002 (ip), vehicle: saline with Tween-80): 90 [2 of 3 alive] and 111 % of control | survivor count [1]: 0 of 3 | survivor count [2]: 0 of 3 | survivor count (T/C endpoint: mean survival time, dose: 100.0 mg/kg/injection, schedule: Q04DX002 (ip), vehicle: Klucel (hydroxypropylcellulose) (HPC)): 0 of 3 | survivor count (T/C endpoint: mean survival time, dose: 200.0 mg/kg/injection, schedule: Q04DX002 (ip), vehicle: Klucel (hydroxypropylcellulose) (HPC)): 0 of 3 | survivor count (T/C endpoint: mean survival time, dose: 400.0 mg/kg/injection, schedule: Q04DX002 (ip), vehicle: Klucel (hydroxypropylcellulose) (HPC)): 0 of 3

O=c1[nH]nc([N+](=O)[O-])[nH]1
T/C (T/C endpoint: mean survival time, dose: 100.0 mg/kg/injection, schedule: Q01DX009 (ip), vehicle: saline with Tween-80): 88 % of control [survivor count not shown] | T/C (T/C endpoint: mean survival time, dose: 200.0 mg/kg/injection, schedule: Q01DX009 (ip), vehicle: saline with Tween-80): 89 % of control [survivor count not shown] | T/C (T/C endpoint: mean survival time, dose: 400.0 mg/kg/injection, schedule: Q01DX009 (ip), vehicle: saline with Tween-80): 94 % of control [survivor count not shown]

CCCCN(CCCC)P1OCCO1
T/C [3]: 98 % of control | T/C [4]: 103 % of control | T/C [5]: 98 and 100 % of control | survivor count [6]: 0 of 6 | survivor count [7]: 0 of 6

CCN(CCCl)CC1OC(OC)C2OC(C)(C)OC12 (stereo not given)
T/C (T/C endpoint: mean survival time, dose: 6.25 mg/kg/injection, schedule: Q01DX009 (ip), vehicle: saline): 118 % of control | T/C (T/C endpoint: mean survival time, dose: 8.2 mg/kg/injection, schedule: Q01DX009 (ip), vehicle: saline): 123 % of control | T/C (T/C endpoint: mean survival time, dose: 12.5 mg/kg/injection, schedule: Q01DX009 (ip), vehicle: saline): 120 [5 of 6 alive] and 126 % of control | T/C (T/C endpoint: mean survival time, dose: 18.0 mg/kg/injection, schedule: Q01DX009 (ip), vehicle: saline): 117 % of control | T/C (T/C endpoint: mean survival time, dose: 25.0 mg/kg/injection, schedule: Q01DX009 (ip), vehicle: saline): 123 % of control | survivor count (T/C endpoint: mean survival time, dose: 50.0 mg/kg/injection, schedule: Q01DX009 (ip), vehicle: saline): 1 of 6 | survivor count [8]: 0 of 6 | survivor count [9]: 0 of 6 | survivor count [10]: 0 of 6

Cc1cc(N(CCCl)CCCl)ccc1C=NCCO
T/C [11]: 109 % of control | T/C [12]: 105 % of control | T/C [13]: 117 % of control | survivor count [14]: 2 of 4

CC1(C)CN1P(=O)(Nc1ccccn1)N1CC1(C)C (stereo not given)
T/C (T/C endpoint: mean survival time, dose: 25.0 mg/kg/injection, schedule: Q01DX009 (ip), vehicle: Klucel (hydroxypropylcellulose) (HPC)): 103 % of control | T/C [15]: 108 % of control | T/C [16]: 114 % of control | T/C [17]: 141 % of control

O=C(OC1CN2CCC1CC2)c1ccccc1O (stereo not given)
T/C (T/C endpoint: mean survival time, dose: 6.25 mg/kg/injection, schedule: Q04DX003 (ip), vehicle: saline): 96 % of control | T/C (T/C endpoint: mean survival time, dose: 12.5 mg/kg/injection, schedule: Q04DX003 (ip), vehicle: saline): 97 % of control | T/C [3]: 100 % of control

CCOC(=O)NP(=O)(NC(=O)NOC)NC(=O)NOC
T/C [18]: 95 % of control | T/C [19]: 100 % of control | T/C [20]: 101 % of control

C[PH+](c1ccccc1)c1ccccc1.C[PH+](c1ccccc1)c1ccccc1.C[PH+](c1ccccc1)c1ccccc1.C[PH+](c1ccccc1)c1ccccc1.F[P-](F)(F)(F)(F)F.[Rh]
T/C [1]: 93 % of control | T/C [2]: 86 % of control | T/C (T/C endpoint: mean survival time, dose: 100.0 mg/kg/injection, schedule: Q04DX002 (ip), vehicle: saline with Tween-80): 117 % of control | T/C (T/C endpoint: mean survival time, dose: 200.0 mg/kg/injection, schedule: Q04DX002 (ip), vehicle: saline with Tween-80): 90 % of control

CNC(=S)NNC(=O)NP(=O)(NC(=O)NNC(=S)NC)NC(=O)NNC(=S)NC
T/C [18]: 100 % of control | survivor count [19]: 2 of 4 | survivor count [20]: 1 of 4

O=P1(N(CCCl)CCCl)NC(O)CCO1 (stereo not given)
T/C (T/C endpoint: mean survival time, dose: 44.0 mg/kg/injection, schedule: Q04DX002 (ip), vehicle: DMSO): 168 % of control | T/C (T/C endpoint: mean survival time, dose: 67.0 mg/kg/injection, schedule: Q04DX002 (ip), vehicle: DMSO): 187 % of control | T/C (T/C endpoint: mean survival time, dose: 100.0 mg/kg/injection, schedule: Q04DX002 (ip), vehicle: DMSO): 229 % of control | T/C (T/C endpoint: mean survival time, dose: 150.0 mg/kg/injection, schedule: Q04DX002 (ip), vehicle: DMSO): 172 % of control [2 of 3 alive]

CC(C)(CO)N=Cc1ccc(N(CCCl)CCCl)cc1
T/C [12]: 107 % of control | T/C [13]: 104 % of control | survivor count [14]: 2 of 4

CCOC(=O)NP(=O)(Nc1ccccn1)Nc1ccccn1
T/C [11]: 104 % of control | T/C [12]: 110 % of control | T/C [13]: 98 % of control | T/C [14]: 101 % of control

CC(C)(C)C1CC(C(F)(F)F)(C(F)(F)F)OP(=O)(Cl)O1 (stereo not given)
T/C [16]: 105 % of control | T/C (T/C endpoint: mean survival time, dose: 100.0 mg/kg/injection, schedule: Q04DX003 (ip), vehicle: Klucel (hydroxypropylcellulose) (HPC)): 97 % of control | T/C [17]: 102 % of control | T/C (T/C endpoint: mean survival time, dose: 200.0 mg/kg/injection, schedule: Q04DX003 (ip), vehicle: Klucel (hydroxypropylcellulose) (HPC)): 94 % of control | survivor count (T/C endpoint: mean survival time, dose: 400.0 mg/kg/injection, schedule: Q01DX009 (ip), vehicle: Klucel (hydroxypropylcellulose) (HPC)): 4 of 6 | T/C (T/C endpoint: mean survival time, dose: 400.0 mg/kg/injection, schedule: Q04DX003 (ip), vehicle: Klucel (hydroxypropylcellulose) (HPC)): 97 % of control

ClCCN1CC2CCCC(CC2)C1
T/C [3]: 106 % of control | T/C [4]: 107 % of control [4 of 6 alive] | survivor count [5]: 0 of 6 and 1 of 6 | survivor count [6]: 0 of 6 | survivor count [7]: 0 of 6

O=C(O)c1cccc(N(CCCl)CCCl)c1
T/C (T/C endpoint: median survival time, dose: 100.0 mg/kg/injection, schedule: Q01DX009 (ip), vehicle: Klucel (hydroxypropylcellulose) (HPC)): 129 % of control | survivor count (T/C endpoint: median survival time, dose: 200.0 mg/kg/injection, schedule: Q01DX009 (ip), vehicle: Klucel (hydroxypropylcellulose) (HPC)): 1 of 6 | survivor count (T/C endpoint: median survival time, dose: 400.0 mg/kg/injection, schedule: Q01DX009 (ip), vehicle: Klucel (hydroxypropylcellulose) (HPC)): 0 of 6

COP(OC)c1ccc(C)cc1
T/C [5]: 106 % of control | T/C [6]: 98 % of control | T/C [7]: 106 % of control

O=C(NP(=O)(N1CCOCC1)N1CCOCC1)N1CCOCC1
T/C (T/C endpoint: mean survival time, dose: 50.0 mg/kg/injection, schedule: Q01DX001 (ip), vehicle: saline): 106 % of control | T/C [18]: 101 % of control | T/C [19]: 104 % of control | T/C [20]: 106 % of control

CC(O)CN(CCO)CC(C)O (stereo not given)
T/C [8]: 98 % of control | T/C [5]: 91 % of control | T/C [9]: 93 % of control | T/C [6]: 96 % of control | T/C [10]: 98 % of control | T/C [7]: 96 % of control

CCOP(=O)(NC1CCCCC1)OCC
T/C [15]: 94 % of control | T/C [16]: 87 % of control | T/C (T/C endpoint: mean survival time, dose: 100.0 mg/kg/injection, schedule: Q04DX003 (ip), vehicle: saline with Tween-80): 95 % of control | T/C [17]: 97 % of control | T/C (T/C endpoint: mean survival time, dose: 200.0 mg/kg/injection, schedule: Q04DX003 (ip), vehicle: saline with Tween-80): 98 % of control | survivor count (T/C endpoint: mean survival time, dose: 400.0 mg/kg/injection, schedule: Q04DX003 (ip), vehicle: saline with Tween-80): 2 of 6
